Measured values as given in the supplement of paper PMC12067093, “Discovery and optimisation of a covalent ligand for TRIM25 and its application to targeted protein ubiquitination” (Chemical Science, 2025).
Some of the results follow.

Chains of the proteins cited; added tags and fusions are not shown. Lines headed by an entry give the natural chain unless they say otherwise; changes in a name come on top.
UniProt Q9H583: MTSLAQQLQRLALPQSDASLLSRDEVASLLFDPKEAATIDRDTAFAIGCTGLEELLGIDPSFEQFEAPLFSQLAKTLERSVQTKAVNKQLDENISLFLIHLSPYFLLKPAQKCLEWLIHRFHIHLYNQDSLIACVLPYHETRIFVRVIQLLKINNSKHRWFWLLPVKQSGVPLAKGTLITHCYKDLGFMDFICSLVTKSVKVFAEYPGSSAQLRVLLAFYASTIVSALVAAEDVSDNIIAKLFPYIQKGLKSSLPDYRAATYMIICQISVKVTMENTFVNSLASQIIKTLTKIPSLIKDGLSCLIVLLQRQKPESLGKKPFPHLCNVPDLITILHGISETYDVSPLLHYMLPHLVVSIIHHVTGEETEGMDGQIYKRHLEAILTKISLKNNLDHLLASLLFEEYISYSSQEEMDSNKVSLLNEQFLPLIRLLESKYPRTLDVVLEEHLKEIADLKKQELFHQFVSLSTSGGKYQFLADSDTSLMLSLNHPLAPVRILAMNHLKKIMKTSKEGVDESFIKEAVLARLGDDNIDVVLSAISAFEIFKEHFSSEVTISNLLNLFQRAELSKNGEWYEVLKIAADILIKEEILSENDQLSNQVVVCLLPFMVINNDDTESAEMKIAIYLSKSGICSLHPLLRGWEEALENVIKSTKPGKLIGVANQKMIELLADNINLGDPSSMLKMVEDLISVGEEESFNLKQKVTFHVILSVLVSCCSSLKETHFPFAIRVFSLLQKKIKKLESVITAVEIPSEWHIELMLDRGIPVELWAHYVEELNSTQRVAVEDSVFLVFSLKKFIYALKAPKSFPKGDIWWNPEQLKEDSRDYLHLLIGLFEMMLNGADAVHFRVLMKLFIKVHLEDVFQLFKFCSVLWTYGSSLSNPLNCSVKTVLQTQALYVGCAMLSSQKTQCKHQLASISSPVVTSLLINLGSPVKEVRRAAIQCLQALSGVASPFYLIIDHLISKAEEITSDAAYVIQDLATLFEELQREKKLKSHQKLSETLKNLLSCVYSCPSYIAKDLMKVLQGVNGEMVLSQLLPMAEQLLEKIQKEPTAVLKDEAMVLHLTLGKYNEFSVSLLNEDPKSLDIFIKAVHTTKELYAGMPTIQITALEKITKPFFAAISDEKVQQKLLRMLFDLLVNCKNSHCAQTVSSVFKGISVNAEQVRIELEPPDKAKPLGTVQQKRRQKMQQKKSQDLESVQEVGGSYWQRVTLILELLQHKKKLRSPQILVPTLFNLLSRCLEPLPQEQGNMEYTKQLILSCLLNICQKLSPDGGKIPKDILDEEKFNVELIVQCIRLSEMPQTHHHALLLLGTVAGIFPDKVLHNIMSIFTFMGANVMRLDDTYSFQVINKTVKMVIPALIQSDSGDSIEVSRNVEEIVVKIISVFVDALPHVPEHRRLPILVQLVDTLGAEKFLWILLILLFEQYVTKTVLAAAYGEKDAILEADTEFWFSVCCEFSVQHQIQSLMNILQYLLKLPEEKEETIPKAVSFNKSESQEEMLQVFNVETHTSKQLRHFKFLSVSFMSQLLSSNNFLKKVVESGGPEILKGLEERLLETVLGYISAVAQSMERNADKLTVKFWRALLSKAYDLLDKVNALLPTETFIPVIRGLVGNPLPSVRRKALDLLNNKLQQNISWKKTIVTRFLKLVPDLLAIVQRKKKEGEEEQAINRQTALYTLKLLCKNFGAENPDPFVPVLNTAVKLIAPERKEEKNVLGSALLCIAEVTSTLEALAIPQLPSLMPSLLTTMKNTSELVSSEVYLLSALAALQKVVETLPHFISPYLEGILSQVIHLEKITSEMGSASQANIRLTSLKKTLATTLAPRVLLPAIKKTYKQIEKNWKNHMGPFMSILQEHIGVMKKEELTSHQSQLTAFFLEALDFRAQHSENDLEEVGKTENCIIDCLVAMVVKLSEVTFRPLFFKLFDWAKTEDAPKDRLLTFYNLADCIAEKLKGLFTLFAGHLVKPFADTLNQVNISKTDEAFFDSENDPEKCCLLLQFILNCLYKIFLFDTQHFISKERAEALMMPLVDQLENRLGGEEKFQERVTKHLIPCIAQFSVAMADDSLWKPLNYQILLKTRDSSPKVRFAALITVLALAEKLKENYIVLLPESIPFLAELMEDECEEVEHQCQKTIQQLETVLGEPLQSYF
UniProt P04229, whole entry, looked up: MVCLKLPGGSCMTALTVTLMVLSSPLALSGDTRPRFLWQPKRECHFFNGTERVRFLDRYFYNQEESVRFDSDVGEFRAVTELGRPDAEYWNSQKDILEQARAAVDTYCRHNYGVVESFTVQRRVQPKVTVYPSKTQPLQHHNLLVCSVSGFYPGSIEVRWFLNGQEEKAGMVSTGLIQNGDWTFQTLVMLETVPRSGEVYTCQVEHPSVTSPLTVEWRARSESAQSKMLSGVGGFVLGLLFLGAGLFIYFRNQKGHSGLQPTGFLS
UniProt P04222, whole entry, looked up: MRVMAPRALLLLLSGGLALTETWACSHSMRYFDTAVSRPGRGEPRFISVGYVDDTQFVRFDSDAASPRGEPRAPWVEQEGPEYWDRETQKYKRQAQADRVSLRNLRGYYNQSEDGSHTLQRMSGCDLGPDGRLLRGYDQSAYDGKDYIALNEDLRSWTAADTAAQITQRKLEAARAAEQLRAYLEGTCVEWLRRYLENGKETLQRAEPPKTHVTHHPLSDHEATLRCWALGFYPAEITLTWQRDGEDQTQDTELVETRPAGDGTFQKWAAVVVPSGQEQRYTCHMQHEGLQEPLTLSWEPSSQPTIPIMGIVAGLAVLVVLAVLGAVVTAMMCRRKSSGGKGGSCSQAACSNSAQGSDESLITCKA
UniProt P52789: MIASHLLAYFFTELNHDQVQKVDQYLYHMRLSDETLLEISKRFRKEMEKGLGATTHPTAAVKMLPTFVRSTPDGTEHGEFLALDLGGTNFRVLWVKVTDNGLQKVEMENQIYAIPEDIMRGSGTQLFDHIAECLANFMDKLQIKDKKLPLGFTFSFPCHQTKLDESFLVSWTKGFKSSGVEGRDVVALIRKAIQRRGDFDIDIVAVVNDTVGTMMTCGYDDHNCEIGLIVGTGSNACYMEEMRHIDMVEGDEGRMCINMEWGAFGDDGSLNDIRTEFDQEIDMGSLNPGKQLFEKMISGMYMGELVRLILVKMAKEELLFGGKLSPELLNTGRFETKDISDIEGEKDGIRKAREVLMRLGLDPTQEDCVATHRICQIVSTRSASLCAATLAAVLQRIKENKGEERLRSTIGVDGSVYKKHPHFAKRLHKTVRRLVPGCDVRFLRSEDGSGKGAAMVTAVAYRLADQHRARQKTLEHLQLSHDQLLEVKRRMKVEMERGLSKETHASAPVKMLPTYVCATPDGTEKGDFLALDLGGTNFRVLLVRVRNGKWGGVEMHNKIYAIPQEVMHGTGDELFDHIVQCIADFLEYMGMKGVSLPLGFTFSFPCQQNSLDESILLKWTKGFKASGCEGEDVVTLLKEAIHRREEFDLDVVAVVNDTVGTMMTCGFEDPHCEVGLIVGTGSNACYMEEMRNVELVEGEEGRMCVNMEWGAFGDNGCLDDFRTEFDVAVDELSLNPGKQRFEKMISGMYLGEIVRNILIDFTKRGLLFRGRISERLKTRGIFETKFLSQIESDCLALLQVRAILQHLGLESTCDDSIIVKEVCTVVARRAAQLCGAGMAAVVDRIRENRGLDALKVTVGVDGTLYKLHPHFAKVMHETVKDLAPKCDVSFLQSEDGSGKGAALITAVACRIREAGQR
UniProt Q969S8: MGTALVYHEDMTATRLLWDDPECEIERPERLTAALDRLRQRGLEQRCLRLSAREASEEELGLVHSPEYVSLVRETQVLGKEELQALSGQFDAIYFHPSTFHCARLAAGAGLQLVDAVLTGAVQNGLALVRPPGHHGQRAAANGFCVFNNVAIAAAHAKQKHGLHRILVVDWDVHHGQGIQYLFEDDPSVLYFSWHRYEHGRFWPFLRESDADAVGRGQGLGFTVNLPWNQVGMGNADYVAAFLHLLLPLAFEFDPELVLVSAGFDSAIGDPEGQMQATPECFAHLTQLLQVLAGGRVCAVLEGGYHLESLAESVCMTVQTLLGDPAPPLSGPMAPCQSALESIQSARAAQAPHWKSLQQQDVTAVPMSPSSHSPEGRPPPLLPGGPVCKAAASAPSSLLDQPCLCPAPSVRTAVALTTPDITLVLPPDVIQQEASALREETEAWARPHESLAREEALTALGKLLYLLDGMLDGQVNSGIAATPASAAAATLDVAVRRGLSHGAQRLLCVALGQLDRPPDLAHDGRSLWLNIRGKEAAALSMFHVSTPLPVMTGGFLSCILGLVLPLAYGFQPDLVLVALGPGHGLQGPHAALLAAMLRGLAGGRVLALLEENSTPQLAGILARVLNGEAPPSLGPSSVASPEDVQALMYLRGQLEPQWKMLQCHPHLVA
UniProt Q9UQL6: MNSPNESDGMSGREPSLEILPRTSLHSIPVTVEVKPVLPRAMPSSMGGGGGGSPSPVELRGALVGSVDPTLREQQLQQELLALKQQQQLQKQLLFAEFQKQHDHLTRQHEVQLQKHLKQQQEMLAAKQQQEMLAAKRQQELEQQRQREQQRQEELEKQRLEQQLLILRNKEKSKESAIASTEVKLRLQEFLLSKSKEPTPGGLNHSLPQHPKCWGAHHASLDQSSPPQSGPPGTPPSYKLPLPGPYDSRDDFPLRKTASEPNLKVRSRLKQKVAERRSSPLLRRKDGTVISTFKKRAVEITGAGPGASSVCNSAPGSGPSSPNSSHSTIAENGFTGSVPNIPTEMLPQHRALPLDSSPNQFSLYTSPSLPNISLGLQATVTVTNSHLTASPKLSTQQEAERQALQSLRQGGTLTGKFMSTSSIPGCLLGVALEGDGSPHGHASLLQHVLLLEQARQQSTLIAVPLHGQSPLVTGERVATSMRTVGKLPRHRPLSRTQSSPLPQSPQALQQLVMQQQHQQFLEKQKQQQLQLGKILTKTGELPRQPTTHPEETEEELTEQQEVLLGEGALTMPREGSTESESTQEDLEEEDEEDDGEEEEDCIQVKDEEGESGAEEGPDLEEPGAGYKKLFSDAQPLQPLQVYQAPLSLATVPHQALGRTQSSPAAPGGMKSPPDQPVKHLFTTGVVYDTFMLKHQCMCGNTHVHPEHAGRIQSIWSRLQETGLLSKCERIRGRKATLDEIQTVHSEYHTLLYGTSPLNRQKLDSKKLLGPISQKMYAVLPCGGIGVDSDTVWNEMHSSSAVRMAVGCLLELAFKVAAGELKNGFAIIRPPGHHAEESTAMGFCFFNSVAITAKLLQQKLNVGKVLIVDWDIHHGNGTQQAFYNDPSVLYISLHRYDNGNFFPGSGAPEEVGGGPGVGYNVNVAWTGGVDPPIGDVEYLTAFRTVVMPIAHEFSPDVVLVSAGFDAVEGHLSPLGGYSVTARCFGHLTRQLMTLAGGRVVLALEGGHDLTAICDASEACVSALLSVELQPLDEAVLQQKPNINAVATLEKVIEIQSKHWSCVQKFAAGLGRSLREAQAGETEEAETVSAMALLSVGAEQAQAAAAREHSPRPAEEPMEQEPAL
UniProt P56524: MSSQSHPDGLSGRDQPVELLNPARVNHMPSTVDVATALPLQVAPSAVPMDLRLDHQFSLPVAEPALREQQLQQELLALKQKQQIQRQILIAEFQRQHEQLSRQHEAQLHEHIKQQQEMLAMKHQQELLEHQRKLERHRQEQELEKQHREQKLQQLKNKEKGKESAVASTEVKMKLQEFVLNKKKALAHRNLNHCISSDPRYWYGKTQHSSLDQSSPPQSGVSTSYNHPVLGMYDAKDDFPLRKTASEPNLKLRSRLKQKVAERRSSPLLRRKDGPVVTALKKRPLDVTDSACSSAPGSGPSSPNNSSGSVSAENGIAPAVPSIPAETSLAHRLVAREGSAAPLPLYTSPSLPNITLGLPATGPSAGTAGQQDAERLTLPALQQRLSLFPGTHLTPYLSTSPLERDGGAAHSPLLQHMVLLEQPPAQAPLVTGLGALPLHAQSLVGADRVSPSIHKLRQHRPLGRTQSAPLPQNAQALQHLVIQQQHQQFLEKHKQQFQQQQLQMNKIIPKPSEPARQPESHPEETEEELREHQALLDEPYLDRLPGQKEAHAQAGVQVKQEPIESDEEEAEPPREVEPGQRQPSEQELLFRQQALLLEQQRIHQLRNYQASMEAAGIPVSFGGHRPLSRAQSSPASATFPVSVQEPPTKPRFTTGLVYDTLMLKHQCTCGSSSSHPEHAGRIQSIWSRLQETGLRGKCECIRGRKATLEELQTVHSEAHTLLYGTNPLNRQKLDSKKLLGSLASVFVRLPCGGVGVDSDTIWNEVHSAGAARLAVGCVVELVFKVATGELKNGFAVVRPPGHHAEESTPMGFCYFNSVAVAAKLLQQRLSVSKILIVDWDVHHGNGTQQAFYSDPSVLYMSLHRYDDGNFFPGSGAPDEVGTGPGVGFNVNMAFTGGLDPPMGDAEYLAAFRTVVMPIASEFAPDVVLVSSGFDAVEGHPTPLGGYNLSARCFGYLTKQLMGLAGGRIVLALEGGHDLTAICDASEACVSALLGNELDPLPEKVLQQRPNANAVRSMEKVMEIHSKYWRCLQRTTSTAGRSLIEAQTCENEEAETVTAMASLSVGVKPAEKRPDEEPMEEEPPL

Compound: CC1Cc2ccccc2N1C(=O)C1CCCN(C1)C(=O)CCl (mixture of isomers) [TRIM25 ligand 11 (diastereomer mixture)]
Test: probe-labelled cysteine peptide fold change vs DMSO (competition) (log2 fold change); higher = less target engagement (more negative = stronger competition)
Conditions: 10 µM; THP-1; incubation time: 4 h
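Note: competitive chemoproteomic profiling in live THP-1 cells with an iodoacetamide desthiobiotin (IA-DTB) probe, comparing probe-labelled peptide intensities in compound-treated cells against DMSO-treated controls.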

Target	probe-labelled cysteine peptide fold change
HDLBP_Q00341_636_ANCEAAR (UniProt Q00341)	0.239
HDLBP_Q00341_948_CDIIIISGR (UniProt Q00341)	-0.00247
HERC2_O95714_3979_VPTPCEALATLRPVQLIGGEQTLFAVTADGK (UniProt O95714)	-0.393
HCCS_P53701_46_GCPVNTEPSGPTCEK (UniProt P53701)	-0.174
HDLBP_Q00341_104_ICLEIMQR (UniProt Q00341)	0.0329
HEATR5B_Q9P2D3_1166_LCSDIHDTLGHMLSSLAVEK (UniProt Q9P2D3)	0.0101
HECTD4_Q9Y4D8_757_AMWGFACTVR (UniProt Q9Y4D8)	0.0189
HIRIP3_Q9BW71_449+450_LLGSCCSHK (UniProt Q9BW71)	-0.0235
HMBS_P08397_114_DLPTVLPPGFTIGAICK (UniProt P08397)	0.000187
HEATR1_Q9H583_1899_AQHSENDLEEVGKTENCIIDCLVAMVVK (UniProt Q9H583)	0.0186
HGS_O14964_212_VCEPCYEQLNR (UniProt O14964)	0.214
HLA-DRB1_P04229_59_CIYNQEESVR (UniProt P04229)	0.0863
HLA-C_P04222_364_GGSCSQAASSNSAQGSDESLIACK (UniProt P04222)	0.168
HCFC1_P51610_1139_RACAAGTPAVIR (UniProt P51610)	0.00185
HEATR6_Q6AI08_426_QGALVCFLSTIK (UniProt Q6AI08)	0.0666
HK2_P52789_158_KLPLGFTFSFPCHQTK (UniProt P52789)	-0.00307
HDAC10_Q969S8_508_LLCVALGQLDRPPDLAHDGR (UniProt Q969S8)	-0.0466
HDAC2_Q92769_285_CVEVVK (UniProt Q92769)	0.135
HGD_Q93099_180_MLVQPNEICVIQR (UniProt Q93099)	0.479

Target	probe-labelled cysteine peptide fold change
HDAC5_Q9UQL6_696_HQCMCGNTHVHPEHAGR (UniProt Q9UQL6)	0.0792
HDAC4_P56524_667_HQCTCGSSSSHPEHAGR (UniProt P56524)	0.349
HDAC10_Q969S8_145_AAANGFCVFNNVAIAAAHAK (UniProt Q969S8)	-0.0235
HIBCH_Q6NVY1_95_AFCAGGDIR (UniProt Q6NVY1)	-0.0665
HIBADH_P31937_75_HGYPLIIYDVFPDACK (UniProt P31937)	-0.0498
HERC1_Q15751_3849_QQGVLGLNMAPCMR (UniProt Q15751)	-0.0714
HAUS6_Q7Z4H7_743_ILDHLEVSCNKPSTNK (UniProt Q7Z4H7)	-0.00729
HERC1_Q15751_4811_VDRPYDSLPTSQTCFFQLR (UniProt Q15751)	0.00422
HDLBP_Q00341_683_SIMEECGGVHIHFPVEGSGSDTVVIR (UniProt Q00341)	0.00431
HDAC1_Q13547_12_VCYYYDGDVGNYYYGQGHPMKPHR (UniProt Q13547)	-0.265
HGS_O14964_185+190_ACGQIFCGK (UniProt O14964)	-0.0659
HELB_Q8NG08_379_KPPWHLCVDVEK (UniProt Q8NG08)	-0.115
HCFC1_P51610_1886+1895_TCLPGFPGAPCAIK (UniProt P51610)	0.111
HDGFL2_Q7Z4V5_496_CLNALEELGTLQVTSQILQK (UniProt Q7Z4V5)	0.029
HERC1_Q15751_3002_RNHPGCGR (UniProt Q15751)	0.288
HDLBP_Q00341_948_RCDIIIISGR (UniProt Q00341)	-0.0356
HGH1_Q9BTY7_51_HVLALTGCGPGR (UniProt Q9BTY7)	0.187
HERC4_Q5GLZ8_160_ASEVFCWGQNK (UniProt Q5GLZ8)	-0.0496

Same assay, conditions: 50 µM; THP-1; incubation time: 4 h

Target	probe-labelled cysteine peptide fold change
HDLBP_Q00341_636_ANCEAAR (UniProt Q00341)	0.338
HDLBP_Q00341_948_CDIIIISGR (UniProt Q00341)	0.215
HERC2_O95714_3979_VPTPCEALATLRPVQLIGGEQTLFAVTADGK (UniProt O95714)	0.0471
HCCS_P53701_46_GCPVNTEPSGPTCEK (UniProt P53701)	-0.169
HDLBP_Q00341_104_ICLEIMQR (UniProt Q00341)	0.146
HEATR5B_Q9P2D3_1166_LCSDIHDTLGHMLSSLAVEK (UniProt Q9P2D3)	-0.181
HECTD4_Q9Y4D8_757_AMWGFACTVR (UniProt Q9Y4D8)	0.28
HIRIP3_Q9BW71_449+450_LLGSCCSHK (UniProt Q9BW71)	-0.0205
HMBS_P08397_114_DLPTVLPPGFTIGAICK (UniProt P08397)	-0.00857
HEATR1_Q9H583_1899_AQHSENDLEEVGKTENCIIDCLVAMVVK (UniProt Q9H583)	0.268
HGS_O14964_212_VCEPCYEQLNR (UniProt O14964)	-0.0373
HLA-DRB1_P04229_59_CIYNQEESVR (UniProt P04229)	0.0381
HLA-C_P04222_364_GGSCSQAASSNSAQGSDESLIACK (UniProt P04222)	-0.0156
HCFC1_P51610_1139_RACAAGTPAVIR (UniProt P51610)	-0.15
HEATR6_Q6AI08_426_QGALVCFLSTIK (UniProt Q6AI08)	0.16
HK2_P52789_158_KLPLGFTFSFPCHQTK (UniProt P52789)	-0.123
HDAC10_Q969S8_508_LLCVALGQLDRPPDLAHDGR (UniProt Q969S8)	0.0946
HDAC2_Q92769_285_CVEVVK (UniProt Q92769)	0.259
HGD_Q93099_180_MLVQPNEICVIQR (UniProt Q93099)	0.382

Target	probe-labelled cysteine peptide fold change
HDAC5_Q9UQL6_696_HQCMCGNTHVHPEHAGR (UniProt Q9UQL6)	0.0793
HDAC4_P56524_667_HQCTCGSSSSHPEHAGR (UniProt P56524)	0.0146
HDAC10_Q969S8_145_AAANGFCVFNNVAIAAAHAK (UniProt Q969S8)	-0.0112
HIBCH_Q6NVY1_95_AFCAGGDIR (UniProt Q6NVY1)	0.0371
HIBADH_P31937_75_HGYPLIIYDVFPDACK (UniProt P31937)	-0.35
HERC1_Q15751_3849_QQGVLGLNMAPCMR (UniProt Q15751)	0.0192
HAUS6_Q7Z4H7_743_ILDHLEVSCNKPSTNK (UniProt Q7Z4H7)	-0.047
HERC1_Q15751_4811_VDRPYDSLPTSQTCFFQLR (UniProt Q15751)	-0.181
HDLBP_Q00341_683_SIMEECGGVHIHFPVEGSGSDTVVIR (UniProt Q00341)	0.0569
HDAC1_Q13547_12_VCYYYDGDVGNYYYGQGHPMKPHR (UniProt Q13547)	-0.227
HGS_O14964_185+190_ACGQIFCGK (UniProt O14964)	-0.197
HELB_Q8NG08_379_KPPWHLCVDVEK (UniProt Q8NG08)	-0.0158
HCFC1_P51610_1886+1895_TCLPGFPGAPCAIK (UniProt P51610)	-0.101
HDGFL2_Q7Z4V5_496_CLNALEELGTLQVTSQILQK (UniProt Q7Z4V5)	-0.13
HERC1_Q15751_3002_RNHPGCGR (UniProt Q15751)	0.287
HDLBP_Q00341_948_RCDIIIISGR (UniProt Q00341)	0.00275
HGH1_Q9BTY7_51_HVLALTGCGPGR (UniProt Q9BTY7)	0.171
HERC4_Q5GLZ8_160_ASEVFCWGQNK (UniProt Q5GLZ8)	0.0671
